Measured values: article PMC12203971
These are yes or no findings as the source states them, for the method shown.

Columns and labels:
[1] = target: Drebrin-SAH (single alpha-helix region of human Drebrin, residues 173-238, with an eight-residue N-terminal linker) (human); test: SAXS; batch mode at 20 C, EMBL-P12 beam line; Drebrin-SAH at 88, 175 and 350 uM in 17 mM NaH2PO4, 3 mM Na2HPO4, 50 mM NaCl, pH 6; concentration-independent MW estimate from scattering invariants; both purified
[2] = target: Drebrin-SAH (single alpha-helix region of human Drebrin, residues 173-238, with an eight-residue N-terminal linker) (human); test: SEC-MALS; SEC-MALLS/RI; 220 uM Drebrin-SAH injected on Superdex Increase 75 5/150 in 17 mM NaH2PO4, 3 mM Na2HPO4, 50 mM NaCl, pH 6, 0.3 ml/min; 25 C; both purified

- binding [1]: no binding (tested: 88, 175 and 350 uM)
- binding [2]: no binding (tested: 220 uM)
B1: Drebrin-SAH (single alpha-helix region of human Drebrin, residues 173-238, with an eight-residue N-terminal linker) (domain or fragment)
chain: GSHMKDPMKRINREQFWEQAKKEEELRKEEERKKALDERLRFEQERMEQERQEQEERERRYREREQQIEEHRRK
